Seven molecules from publication PMC4678811, “Assembly and dynamics of the U4/U6 di-snRNP by single-molecule FRET” (Nucleic Acids Research, 2015) can be followed below.

The target of assay [1] is T1, LSm8 (Saccharomyces cerevisiae) (UniProt P47093).
T1 sequence: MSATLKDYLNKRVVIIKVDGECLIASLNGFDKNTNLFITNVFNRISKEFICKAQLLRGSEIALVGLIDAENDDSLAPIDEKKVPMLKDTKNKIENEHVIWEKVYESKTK
As to the kind of experiment: co-purification; seven LSm proteins co-expressed in yeast BCY123; lysate on calmodulin resin (CBP on LSm8, 500 mM NaCl, eluted with 2 mM EGTA), then Ni-NTA (His8 on LSm5, 500 mM NaCl, 500 mM urea), hydroxyapatite, Mono-Q.

Assay [2] concerns the target T2, Prp3 (Saccharomyces cerevisiae) (UniProt Q03338).
T2 sequence: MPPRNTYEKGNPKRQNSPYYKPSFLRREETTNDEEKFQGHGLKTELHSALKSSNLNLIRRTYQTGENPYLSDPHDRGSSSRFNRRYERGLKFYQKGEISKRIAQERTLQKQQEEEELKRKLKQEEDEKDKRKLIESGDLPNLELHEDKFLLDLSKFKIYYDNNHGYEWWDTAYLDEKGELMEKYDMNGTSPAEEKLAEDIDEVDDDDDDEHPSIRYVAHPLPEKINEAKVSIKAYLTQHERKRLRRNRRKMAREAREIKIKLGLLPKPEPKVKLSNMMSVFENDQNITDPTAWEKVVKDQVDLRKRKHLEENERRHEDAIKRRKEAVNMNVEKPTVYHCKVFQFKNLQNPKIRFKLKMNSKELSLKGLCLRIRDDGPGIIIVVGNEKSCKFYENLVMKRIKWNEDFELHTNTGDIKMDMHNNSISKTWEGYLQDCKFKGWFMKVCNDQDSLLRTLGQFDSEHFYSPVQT
As to the kind of experiment: co-purification; Prp3-His8 and untagged Prp4 co-expressed in yeast BCY123; lysate on Ni-NTA, then hydroxyapatite, Resource-Q, Superdex-200 gel filtration (500 mM NaCl). In general terms: SEC sorts molecules by how far they enter the pores of the column.

These are yes or no findings as the source states them, for the method shown. Some entries that bind do so weakly or less than the wild type. Tags and fused reporters may be left off the sequences shown.

B1: LSm2 (protein, UniProt P38203 1-95)
chain: MLFFSFFKTLVDQEVVVELKNDIEIKGTLQSVDQFLNLKLDNISCTDEKKYPHLGSVRNIFIRGSTVRYVYLNKNMVDTNLLQDATRREVMTERK
On to B1, for which, in assay [1], the binding entry was “binds”.

B2: LSm5 (protein, UniProt P40089 1-93)
chain: MSLPEILPLEVIDKTINQKVLIVLQSNREFEGTLVGFDDFVNVILEDAVEWLIDPEDESRNEKVMQHHGRMLLSGNNIAILVPGGKKTPTEAL
As for B2, the binding result in assay [1] is given as “binds”.

B3: Prp4 (protein, UniProt P20053 1-465)
chain: MSKYIALENLPVDLQHKGATQNESTADILKQLPHERLQAVLEKIPEEDLEVRRLLSILKKPEVVENEDVQQRRIRLAEILMVDEIDLENINNMENINGEEVDEEDDEDFFTPATSELIFARRFLINYSLERSRKRLQKEMERHQKFNTRQELLSRRTELQRMANLELAGSQLVSTKPISAVSLSTDDMVVATGSWAGDLQVLNSQTLQPLTQKLDSHVGKIGAIDWHPDSNNQMISCAEDGLIKNFQYSNEEGGLRLLGDLVGHERRISDVKYHPSGKFIGSASHDMTWRLWDASTHQELLLQEGHDKGVFSLSFQCDGSLVCSGGMDSLSMLWDIRSGSKVMTLAGHSKPIYTVAWSPNGYQVATGGGDGIINVWDIRKRDEGQLNQILAHRNIVTQVRFSKEDGGKKLVSCGYDNLINVYSSDTWLKMGSLAGHTDKIISLDISNNSHFLVSGGWDRSIKLWN
In the case of B3, the binding entry in assay [2] is “binds”.

B4: LSm3 (protein, UniProt P57743 1-89)
chain: METPLDLLKLNLDERVYIKLRGARTLVGTLQAFDSHCNIVLSDAVETIYQLNNEELSESERRCEMVFIRGDTVTLISTPSEDDDGAVEI
With B4, in assay [1], the binding result is reported as “binds”.

B5: LSm6 (protein, UniProt Q06406 1-86)
chain: MSGKASTEGSVTTEFLSDIIGKTVNVKLASGLLYSGRLESIDGFMNVALSSATEHYESNNNKLLNKFNSDVFLRGTQVMYISEQKI
Take B5: the binding result in assay [1] was “binds”.

B6: LSm4 (1–106) (domain or fragment, UniProt P40070 1-106)
chain: MLPLYLLTNAKGQQMQIELKNGEIIQGILTNVDNWMNLTLSNVTEYSEESAINSEDNAESSKAVKLNEIYIRGTFIKFIKLQDNIIDKVKQQINSNNNSNSNGPGH
B6: the binding entry in assay [1] is listed as “binds”.

B7: LSm7 (protein, UniProt P53905 1-115)
chain: MHQQHSKSENKPQQQRKKFEGPKREAILDLAKYKDSKIRVKLMGGKLVIGVLKGYDQLMNLVLDDTVEYMSNPDDENNTELISKNARKLGLTVIRGTILVSLSSAEGSDVLYMQK
Take B7: the binding entry in assay [1] is on record as “binds”.
